Consider 40 compounds from PubChem BioAssay (NCATS).

Some of the results follow. The main result of the screen is listed elsewhere. These columns were measured beside it and carry no call. Compounds called inactive in the main read-out are mostly missing here. The note in brackets gives the kind of curve behind each potency; many fits are weak.

A short description of this test: qHTS Assay for Inhibitors of PDE-IV (AID 607). Particulars: HEK293 ACTOne CNG channel cells, membrane potential fluorescence; measured here: parental cell counter-screen. Put shortly:
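Live HEK293 cells with a modified cyclic nucleotide-gated (CNG) channel report intracellular cAMP via membrane-potential dye fluorescence (ex 535/em 590 nm). Endogenous PDE-IV was targeted. Compounds were tested at up to 22.9 uM final; RO 20-1724 100 uM served as control.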
In the case of `CC(C)(C)C(=O)NC(c1ccc(Cl)cc1)[C@]1(C)C[C@H]1C1CCCCC1` (stereo not given in full), the AC50 (in general, the concentration giving half of the maximal activity seen) is 2 µM [rising, single point].
As for `CC(=O)N1CCC[C@@]2(CCN(c3ncccn3)C2)C1`, the figure is 0.0794 µM [rising, single point]; as for `O=C(c1ccco1)N1CCC2(CCN(Cc3ccccc3)CC2)CC1`, 3.16 µM [rising, single point].
With `CC(=O)N1CCC2(CCN(Cc3ccncc3)CC2)CC1`, the half-maximal activity concentration (AC50) is 3.98 µM [rising, single point].
Regarding `COC(=O)[C@@]1(Cc2ccc(OC)cc2)[C@H]2c3cc(C(=O)N4CCCC4)n(Cc4ccc(C(F)(F)F)nc4)c3C[C@H]2CN1C(=O)c1ccccc1`, the concentration at half-maximal activity (AC50) was 12.6 µM [rising, single point].
For `Cc1ccccc1N=C(N)Nc1ccccc1C` the value was 15.8 µM [rising, partial curve]; for `COC(=O)[C@@]1(Cc2ccccc2)[C@H]2c3cc(C(=O)N4CCCC4)n(Cc4ccsc4Br)c3C[C@H]2CN1C(=O)c1ccccc1`, 3.16 µM [rising, single point]; for `O=C(O)CCC/C=C\C[C@@H]1CO[C@H](C(F)(F)F)O[C@@H]1c1ccccc1O`, 15.8 µM [rising, partial curve].
For `CCCCC1(COC(=O)CCC(=O)O)C(=O)N(c2ccccc2)N(c2ccccc2)C1=O` the value was 6.31 µM [rising, partial curve, poor fit]; for `COc1ccc2nc3c(c([Si](C)(C)C(C)(C)C)c2c1)Cn1c-3cccc1=O`, 15.8 µM [rising, single point]; for `COc1cccc(-c2cc(NCc3cccc(C)c3)ncn2)c1`, 12.6 µM [rising, single point].
As for `O=C(c1cc(C(F)(F)F)cc(C(F)(F)F)c1)N1CCC2(CC1)CCN(c1ccncc1)CC2`, the AC50 was 12.6 µM [rising, partial curve].
On to `COC(=O)[C@@]1(Cc2ccc(F)cc2)[C@H]2c3cc(C(=O)N(C)C)n(Cc4ccc(OC)c(OC)c4)c3C[C@H]2CN1C(=O)c1ccccc1`, for which the AC50 is 7.94 µM [rising, partial curve].
For `N#Cc1ccccc1-c1ccc2ncnc(NCc3cccs3)c2c1` the value was 10 µM [rising, single point].
As for `COC(=O)[C@H]1C[C@@H]1[C@H](NS(=O)(=O)c1ccc(-c2ccccc2)cc1)c1ccccc1`, the figure is 10 µM [rising, single point]; as for `CCC/C=C(\CCC)C(NS(=O)(=O)CC12CCC(CC1=O)C2(C)C)c1ccc(C(=O)OC)cc1` (stereo not given), 2 µM [rising, partial curve]; as for `COc1ccc(C(=O)N2CCC[C@@]3(CCN(Cc4ccc(C#N)cc4)C3)C2)cc1`, 12.6 µM [rising, single point].
As to `COCCNc1ncnc2ccc(-c3ccccc3C(F)(F)F)cc12`, the concentration at half-maximal activity (AC50) is 12.6 µM [rising, single point].
As for `CN(C)Cc1ccccc1-c1nc(N2CCOCC2)c2ccccc2n1`, the figure is 12.6 µM [rising, partial curve].
For `Cc1ccc(/C(=C/CN2CCCC2)c2ccccn2)cc1` the value was 25.1 µM [rising, partial curve, poor fit].
For `COc1ccccc1-c1nccc(NCc2ccccc2)n1`, the concentration at half-maximal activity (AC50) was 7.94 µM [rising, partial curve, poor fit].
With `CCn1cc(C(=O)O)c(=O)c2ccc(Cc3ccccc3)nc21`, the concentration at half-maximal activity (AC50) is 5.01 µM [rising, partial curve, poor fit].
As for `O=C(Oc1ccccc1)N1CCC2(CCCN(c3ccccc3)C2)CC1`, the concentration at half-maximal activity (AC50) was 10 µM [rising, single point].
`CCC/C=C(\CCC)C(NS(=O)(=O)c1ccccc1)c1ccc(C(F)(F)F)cc1` (stereo not given): the concentration at half-maximal activity (AC50) is 7.94 µM [rising, partial curve].
`C[C@@H](C(=O)O)[C@H]1C[C@]1(C)[C@H](NC(=O)OCc1ccccc1)c1ccccc1`: the AC50 is 0.631 µM [rising, single point].
Consider `C=C(CC1([C@@H](NP(=O)(c2ccccc2)c2ccccc2)[C@H]2C[C@@H]2CCCC)CC1)c1ccccc1`, for which the concentration at half-maximal activity (AC50) was 0.0631 µM [rising, partial curve, poor fit].
For `CCCC[C@@H]1C[C@H]1C(NC(=O)c1ccco1)c1ccc(Cl)cc1` (stereo not given in full) the value was 12.6 µM [rising, single point]; for `CC(=O)[C@@H]1CC[C@@H]2[C@@H]3CCC4=CC(=O)CC[C@@]4(C)[C@H]3CC[C@]21C`, 6.31 µM [rising, partial curve, poor fit]; for `N#Cc1ccc(CN2CCCC3(CCN(C(=O)c4cccc(F)c4)CC3)C2)cc1`, 12.6 µM [rising, single point].
Turning to `Clc1ccc([C@H](Cn2ccnc2)OCc2c(Cl)cccc2Cl)c(Cl)c1`, the AC50 was 10 µM [rising, single point].
Regarding `O=C(c1ccco1)N1CCC2(CC1)CN(Cc1cc(C(F)(F)F)cc(C(F)(F)F)c1)C2`, the AC50 was 10 µM [rising, single point].
With `c1ccc(Nc2ncnc3ccc(-c4ccc5c(c4)OCO5)cc23)cc1`, the concentration at half-maximal activity (AC50) is 12.6 µM [rising, single point].
In the case of `CN(C)Cc1ccccc1-c1nc(NCc2cccs2)c2ccccc2n1`, the AC50 is 10 µM [rising, partial curve].
With `CCc1c2c(nc3cccc(C(C)C)c13)-c1cccc(=O)n1C2`, the concentration at half-maximal activity (AC50) was 3.98 µM [rising, single point].
For `CCCCCN(CCCCC)C(=O)[C@H](CCC(=O)O)NC(=O)c1ccc(Cl)c(Cl)c1`, the half-maximal activity concentration (AC50) is 10 µM [rising, single point].
For the compound `COc1ccc(CNc2ncnc3ccc(-c4ccccc4CN(C)C)cc23)c(OC)c1`, the AC50 was 7.94 µM [rising, partial curve].
As for `CC(C)NC(=O)N1CCC2(CC1)CCN(C(=O)c1cccc(F)c1)CC2`, the figure is 3.98 µM [rising, single point]; as for `COC(=O)[C@@H](NC(=O)c1cc(-c2ccccc2)nc2ccccc12)c1ccccc1`, 15.8 µM [rising, partial curve, poor fit]; as for `C[C@@H](C(=O)Nc1ccc2ccccc2c1)[C@@H]1C[C@@]1(C)[C@@H](NC(=O)c1cccnc1)c1ccccc1`, 2.51 µM [rising, single point].
With `COc1ccccc1-c1ccc2ncnc(Nc3ccccc3)c2c1`, the AC50 is 12.6 µM [rising, single point].
